Results taken from US11541028B2 (Mederis Diabetes LLC, priority 2018, dated 2023).

Test: general procedure: Fmoc solid-phase peptide synthesis; Fmoc-Thr(tBu)-HMPA resin; HBTU:DIEA (1:2); DIC/HOBt for side-chain acylation and lactam
Settings: whole synthesis, analytical HPLC / mass spectrometry, scale of the general procedure 2 mmole

Boc-His(Trt)-Aib-Gln(Trt)-Gly-Thr(tBu)-Phe-Thr(tBu)-Ser(tBu)-Asp(OtBu)-Tyr(tBu)-Ser(tBu)-Lys(Boc)-Tyr(tBu)-Leu-Asp(OtBu)-Glu(O-Allyl)-Gln(Trt)-Ala-Ala-Lys(Alloc)-Glu(O-tBu)-Phe-Ile-Lys(Dde)-Trp(Boc)-Leu-Leu- Gln(Trt)-Thr(tBu)-HMPA
final HPLC purity: 98.7%
